Among all 300,000 compounds or so, about 5,400 (1.8%) were called active. The inconclusive results got no clear call from the source; some entries with a clear call stand among them for comparison. Calls follow the shape of the full dose curve; tested in HEK293 cells. Potencies beside an inconclusive call are fits to weak or partial responses and may not hold up.
assay: qHTS for inhibitors of binding or entry into cells for Marburg Virus; conditions: Marburg virus pseudotyped entry inhibition, cell reporter; activity change, negative = inhibition: at 37.8 µM (top of the series) unless noted
% is scaled to controls: 0 for no effect and ±100 for the full control effect; potency is read from the fitted curve at half-maximal effect.

Row | SMILES | Potency | activity change, negative = inhibition
1 | Cc1ccc(Cl)cc1NC(=O)c1cc(-c2ccc3c(c2)OCCO3)on1 | inconclusive: 2.82 µM [activator, single point] | 
2 | CC(=O)c1ccc(NC(=S)NCCc2cccc(Cl)c2)cc1 | inconclusive: 2.51 µM [activator, partial curve, poor fit] | 
3 | CCSc1nnc(NC(=O)C2CCCCC2)s1 | inconclusive: 12.6 µM [activator, single point] | 
4 | CN(C)c1cccc(C(=O)OCC(=O)Nc2nccs2)c1 | inconclusive: 35.5 µM [inhibitor, single point] | 
5 | CN(C)CCCO/N=C(\c1ccccc1)c1ccncc1 | inconclusive: 6.31 µM [activator, single point] | 
6 | Cc1nc2ccc(S(=O)(=O)NCC(=O)Nc3ccc(C)c(Cl)c3)cc2s1 | inactive | 
7 | COc1ccc(C(=O)O/N=C(\N)c2ccccc2)c(OC)c1 | active: 1.46 µM | 
8 | CS(=O)(=O)Nc1ccc(C(=O)Nc2ccc(S(=O)(=O)N3CCCCC3)cc2)cc1 | inactive | 
9 | Cc1ccc(-c2cc3ncc4c(n3n2)-c2ccccc2OC4)cc1 | inactive | 
10 | CCOc1ccc2nc(NC(=O)Nc3cccs3)sc2c1 | inactive | 
11 | CN(C)C(=S)Nc1ccc(S(=O)(=O)N2CCCCC2)cc1 | inconclusive: 1.58 µM [activator, partial curve, poor fit] | 
12 | Cc1ccc(OCC(=O)NC(C)c2ccc(Cl)c(Cl)c2)c([N+](=O)[O-])n1 (configuration not stated) | inactive | 
13 | N#CC1=C(N)OC2=C(CC/C2=C\c2ccccc2Cl)C1c1ccccc1Cl (configuration not stated) | inactive | 
14 | Cc1ccc2c(c1)CC1(CN2C)C(=O)OC(C)(C)OC1=O | inactive | 
15 | CCn1cc(C(=O)NCCCOC)c(=O)c2cc(S(=O)(=O)N3CCC(C)CC3)ccc21 | inconclusive: 3.16 µM [inhibitor, partial curve, poor fit] | 
16 | COc1ccc(C(=O)Nc2c(C)ccc3nsnc23)cc1[N+](=O)[O-] | inconclusive: 2.51 µM [activator, single point] | 
17 | Cc1ccc(N(Cc2ccc(C(=O)NC3CCCCC3)cc2)S(C)(=O)=O)cc1C | inconclusive: 0.326 µM [inhibitor, full curve, poor fit] | 
18 | O=C(CN(c1ccccc1)S(=O)(=O)c1ccccc1)N/N=C/c1ccco1 | inconclusive: 1.41 µM [inhibitor, partial curve, poor fit] | 
19 | COc1ccc(NC(=O)c2ccco2)cc1S(=O)(=O)N1CCCCC1 | inactive | 
20 | CN(C)CCCNC(=O)c1cc(C(=O)c2c(Cl)cccc2Cl)c[nH]1 | inconclusive: 10 µM [inhibitor, partial curve, poor fit] | 
21 | NC(=O)c1ccsc1NC(=O)CSc1nnc(NC2CC2)s1 | inconclusive: 2.82 µM [inhibitor, partial curve] | 
22 | O=C(CN1CCN(c2ccccc2F)CC1)Nc1cccnc1Cl | inactive | 
23 | CCCSc1nsc(SCCC)c1C#N | inconclusive: 10 µM [activator, partial curve] | 
24 | COC(=O)c1c(NC(C)=O)sc(C)c1C | inactive | 

4 of the compounds above, as labelled records:
Cc1nc2ccc(S(=O)(=O)NCC(=O)Nc3ccc(C)c(Cl)c3)cc2s1
  Potency: inactive
CCOc1ccc2nc(NC(=O)Nc3cccs3)sc2c1
  Potency: inactive
Cc1ccc2c(c1)CC1(CN2C)C(=O)OC(C)(C)OC1=O
  Potency: inactive
NC(=O)c1ccsc1NC(=O)CSc1nnc(NC2CC2)s1
  Potency: inconclusive: 2.82 µM [inhibitor, partial curve]

Continuation:

Row | SMILES | Potency | activity change, negative = inhibition
25 | Cc1nc2c(C(=O)NCCc3ccccc3)c[nH]n2c(=O)c1Cc1ccccc1F | inconclusive: 3.55 µM [activator, single point] | 
26 | O=S(=O)(c1ccc(Br)cc1)N1CCC(c2nc3ccccc3[nH]2)CC1 | inconclusive: 0.562 µM [inhibitor, full curve, poor fit] | 
27 | O=C(N/C(=C\c1ccc(-c2ccccc2)o1)C(=O)N1CCOCC1)c1ccccc1 | inconclusive: 1.41 µM [inhibitor, full curve, poor fit] | 
28 | CCn1c(NCc2cc(OC)ccc2OC)nc2ccccc21 | inactive | 
29 | CCNc1nc(SC(C)C(=O)OC)nc(N(C)C)n1 (configuration not stated) | inconclusive: 6.31 µM [activator, full curve, poor fit] | 
30 | COCCCNC(=O)C1CCN(C(=O)c2cc3sccc3n2Cc2ccc(Cl)cc2)CC1 | inconclusive: 11.2 µM [inhibitor, partial curve, poor fit] | 
31 | CC1=C(C(=O)Nc2ccccc2)C(c2ccco2)C(C#N)=C(SCC(=O)OC(C)C)N1 (configuration not stated) | inconclusive: 0.82 µM [inhibitor, full curve, poor fit] | 
32 | Cc1occc1C(=O)N/N=C/C1=C(N2CCOCC2)C(=C\c2ccc(Cl)cc2Cl)/CC1 | inactive | 
33 | CC1CCCN(C(=O)c2ccc3c(c2NCCO)C(=O)c2ccccc2C3=O)C1 (configuration not stated) | inconclusive: 14.1 µM [inhibitor, partial curve, poor fit] | 
34 | O=C(CSCc1ccccc1)Nc1ccc(S(=O)(=O)Nc2ncccn2)cc1 | inactive | 
35 | COc1ccc(OC)c(S(=O)(=O)N(C)CC(=O)Nc2ccc3c(c2)OCO3)c1 | inactive | 
36 | Fc1ccc(Nc2c(-c3c[nH]c4ccccc34)nc3ccccn23)cc1 | inconclusive: 3.16 µM [activator, partial curve, poor fit] | 
37 | CCOc1ccc(Cc2c(Cl)nc(SC)nc2N(C)C)cc1 | inconclusive: 5.17 µM [inhibitor, partial curve, poor fit] | 
38 | O=C(NCCN1CCOCC1)c1cc(-c2cccs2)nc2ccccc12 | inactive | 
39 | CCN1C(=O)CC(NNC(=O)c2ccc(Cl)cc2)C1=O (configuration not stated) | inactive | 
40 | COCc1cc(C)nc(OCC(=O)N/N=C/c2ccc(-c3cc([N+](=O)[O-])ccc3Cl)o2)c1C#N | inconclusive: 14.1 µM [activator, single point] | 
41 | O=C(Cc1cccs1)Nc1ccc(N2CCOCC2)cc1 | inactive | 
42 | O=C(COc1ccc(Cl)cc1Cl)NC(=O)NC1CCCC1 |  | inconclusive: 20.7% [activator] [at 46.1 µM]
43 | Cc1cc(C)c2nc(C(F)(F)F)nc(N3CCN(C(=O)c4ccco4)CC3)c2c1 | inactive | 
44 | COc1ccc(C(=O)NC2CCCc3ccccc32)cc1S(=O)(=O)N1CCOCC1 (configuration not stated) | inactive | 
45 | CC1=C/C(=N\OS(=O)(=O)c2ccccc2)C=CC1=O | inconclusive: 5.01 µM [inhibitor, partial curve, poor fit] | 
46 | COc1ccccc1CNC(=O)C12CC3CC(CC(C3)C1)C2 | inconclusive: 0.178 µM [inhibitor, full curve] | 
47 | O=C1N/C(=N/O)S/C1=C/c1cccc([N+](=O)[O-])c1 | inactive | 
48 | Oc1ccccc1C=NN=Cc1c(O)ccc2ccccc12 | inconclusive: 22.4 µM [activator, partial curve, poor fit] | 

Row | SMILES | Potency | activity change, negative = inhibition
49 | CCOc1ccc(NC(=O)c2ncn(-c3ccccc3)n2)cc1 | inconclusive: 10 µM [activator, partial curve, poor fit] | 
50 | Cn1c(SCc2nc(-c3ccc(Cl)cc3)no2)nnc1-c1ccccc1 | inactive | 
51 | O=C(CCCO)N/N=C/c1cc(Br)ccc1O | inactive | 
52 | CCOCCCNC(=O)c1ccc2c(c1)ncn2C1CCCC1 | inactive | 
53 | Cc1ccc(OCCSc2nc3ccccc3n2CC(=O)NC(C)C)cc1 | inactive | 
54 | O=[N+]([O-])c1ccc(S(=O)(=O)CC(CN2CCOCC2)N2CCOCC2)cc1 (configuration not stated) | inconclusive: 11.2 µM [inhibitor, partial curve] | 
55 | COc1ccccc1NS(=O)(=O)c1cc(NC(=O)Nc2ccc(Cl)cc2Cl)ccc1N1CCCCC1 | inconclusive: 4.47 µM [inhibitor, partial curve] | 
56 | CN(Cc1ccc(Br)s1)C(=O)CNC(=O)c1ccc2c(c1)OCO2 | inactive | 
57 | COc1ccc(CCNC(=O)CC2SC(=NCCC(C)C)NC2=O)cc1OC (configuration not stated) | inconclusive: 6.31 µM [inhibitor, single point] | 
58 | O[C@@H]1CN(CC2CCCCC2)[C@@H](c2ccccc2)C[C@@H]1n1cc(-c2ccc(F)cc2)nn1 | inconclusive: 9.95 µM [inhibitor, full curve] | 
59 | O=C(Nc1ccc(OC(F)(F)F)cc1)C(NS(=O)(=O)c1cccc2nsnc12)c1ccccc1 (configuration not stated) | inconclusive: 8.91 µM [inhibitor, partial curve, poor fit] | 
60 | C/C(=N\NC(=O)c1nnn(-c2nonc2N)c1CN(C)c1ccccc1)c1ccccc1O | active: 8.91 µM | 
61 | CCn1c(=O)c(=O)[nH]c2cc(C(=O)N(C)Cc3ccc(OC)c(F)c3)ccc21 | inactive | 
62 | COc1ccc(C(=O)C2CCCN(Cc3cnc(N4CCOCC4)s3)C2)c(OC)c1 (configuration not stated) | inconclusive: 6.31 µM [inhibitor, full curve, poor fit] | 
63 | O=C(COc1ccccc1)NCCc1cnc[nH]1 | inconclusive: 0.794 µM [activator, full curve, poor fit] | 
64 | CC(=O)Oc1ccc(N2C(=O)C3C4C=CC(CO)(O4)C3C2=O)cc1 (configuration not stated) | inconclusive: 35.5 µM [activator, single point] | 
65 | O=C(COc1ccccc1F)Nc1ccc2c(c1)OCCO2 | inconclusive: 3.55 µM [activator, partial curve, poor fit] | 
66 | O=C(Nc1ccccc1-c1ccccc1)C(c1ccccc1)c1ccccc1 | inconclusive: 35.5 µM [activator, single point] | 
67 | O=C(Nc1ccc(S(=O)(=O)Nc2cnc3ccccc3n2)cc1)c1cccc(OC(F)F)c1 | inactive | 
68 | CCn1c(C(=O)N2CCC(C(=O)NCc3ccc(OC)cc3)CC2)cc2sccc21 | inactive | 
69 | Cc1cccc(CSC(Nc2ccc(F)cc2)=C(C#N)C#N)c1 | active: 2.91 µM | 
70 | O=C(CSc1nnc(SCc2ccccc2)s1)N/N=C/C=C/c1ccccc1[N+](=O)[O-] | inactive | 
71 | CCOC(=O)c1ccc(Oc2nc(NC)nc(Nc3ccccc3)n2)cc1 | inconclusive: 16.4 µM [inhibitor, single point] | 
72 | Cc1cc(C(=O)Nc2ccc(CC(=O)O)cc2)c(C)o1 | inconclusive: 7.08 µM [inhibitor, partial curve] | 

Source: PubChem BioAssay AID540276 (National Center for Advancing Translational Sciences (NCATS), 2011)
